Paper PMC12969390
Results are given in words; binding and its absence hold for the method and conditions named. Binding seen in cells or lysates may run through a third protein. These calls come from enrichment with a bait or labelling near it, and not all partners need be listed.

Target: T1, TBP-TAP (C. albicans) (UniProt O43133)
T1 sequence: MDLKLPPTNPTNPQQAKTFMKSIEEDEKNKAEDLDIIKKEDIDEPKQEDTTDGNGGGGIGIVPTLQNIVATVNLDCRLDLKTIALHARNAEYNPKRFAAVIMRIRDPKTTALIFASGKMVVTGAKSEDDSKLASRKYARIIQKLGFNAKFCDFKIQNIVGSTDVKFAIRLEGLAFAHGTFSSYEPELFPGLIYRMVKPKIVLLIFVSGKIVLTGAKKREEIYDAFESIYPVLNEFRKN
Assay: affinity purification with mass spectrometry; TBP-TAP and TAF11-TAP affinity purified from C. albicans strains, MudPIT; untagged strain SN87 as control

B1: TAF12 (protein, UniProt Q5ADM2 1-515)
chain: MDSSAASSQEKRVGTSTPEAELNPHRAKALLAKFKEEMALAKAATDPQEREKHSELVEKIKRILIRYQEQQKQAKNNSPATKSNLTNQDSTTNTPSPLATNNNSATNVIEPKTETPDSTPMEQKPIQAPTPQHPNNASTSSATMSTTQFQPQPQPQQQTVTVEKYNHVKNTLKDMWKQVKTLEASSINETQTKKEEIDRKITELRNQMQKYHTAALRMKSKLIEQGTIPANSTPIGSPTPVSNTDPTPIANTTNTSNVTPPTEKAEENSKPNVKPPSTTTTTTSKSKPKPLSTTATNSTTKTSTPSKGSGSSKSNNRSSSQNTPGTSTSASATKTASVSTEKDAPLTATTSTSAVAPAAATVAATTAPTAAAAATSLSTASAITTKSTADPKVTPSNIPDNDGRVLTKRKLVEMINNISIDQGDAKIPIDNDVEDIFLDLADEFVRNVVQFSGRLAKHRKLDRIDVRDVQLNLERNWGLRIPGYSTDEIRAARKWQPEGEYAENVKKISKLNKDQ
How did the binding turn out when B1 was run?
The binding was “binds”.
